PubChem BioAssay AID1259424 – University of Nebraska Medical Center | 2018

Screen: 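Find knockdowns that reproduce the expression shifts seen after KSR1 loss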 (primary screen)
Cells: human HCT116 colon cancer cells
Reagent: siRNA pool against human genes, 50 nM
Measurement: 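Log2 levels of six mRNAs (branched-DNA multiplex), adjusted by two reference genes and the non-targeting median, then scored against the average KSR1 knockdown pattern as Pearson r and euclidean distance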
Direction: mean correlation with KSR1 profile: higher = expression change more like KSR1 knockdown
The whole screen tested about 14,000 reagents; this is an unselected part. 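Higher correlation or smaller distance means closer resemblance to KSR1 loss; control wells, including KSR1 knockdowns, recur on many plates.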 Further read-outs or replicates are left out here. No sequences are given here. Not stated in the record: the time to read-out.

| gene knocked down | PubChem SID | mean correlation with KSR1 profile |
| --- | --- | --- |
| AMPD1 (adenosine monophosphate deaminase 1) | SID363991375 | -0.0297 |
| KXD1 (KxDL motif containing 1) | SID364002724 | -0.333 |
| SYNE2 (spectrin repeat containing nuclear envelope protein 2) | SID363999349 | 0.067 |
| PLS3 (plastin 3) | SID363995971 | -0.301 |
| RPS15 (ribosomal protein S15) | SID363992316 | -0.189 |
| PNPLA3 | SID364003327 | 0.581 |
| ACBD4 (acyl-CoA binding domain containing 4) | SID364003004 | -0.0484 |
| SMC2 (structural maintenance of chromosomes 2) | SID363997254 | -0.213 |
| CRNN (cornulin) | SID363999938 | -0.0679 |
| UCHL3 (ubiquitin C-terminal hydrolase L3) | SID363996856 | 0.17 |
| CST5 (cystatin D) | SID363993113 | -0.0072 |
| SYT5 (synaptotagmin 5) | SID363994316 | -0.0442 |
| LGR6 (leucine rich repeat containing G protein-coupled receptor 6) | SID364005282 | -0.159 |
| FAM32A (family with sequence similarity 32 member A) | SID363998594 | -0.446 |
| FGF3 (fibroblast growth factor 3) | SID363996168 | -0.232 |
| AHCY (adenosylhomocysteinase) | SID363991986 | -0.0994 |
| GTF2E2 (general transcription factor IIE subunit 2) | SID363993302 | 0.692 |
| TRIM44 (TRIM family member 44) | SID364000377 | -0.135 |
| RORC (RAR related orphan receptor C) | SID363995998 | 0.627 |
| SEPTIN7 (septin 7) | SID363993007 | -0.644 |

Reformatted: 3 of the entries above.
gene knocked down | PubChem SID | mean correlation with KSR1 profile
PNPLA3 | SID364003327 | 0.581
ACBD4 (acyl-CoA binding domain containing 4) | SID364003004 | -0.0484
SMC2 (structural maintenance of chromosomes 2) | SID363997254 | -0.213
